Data taken from publication PMC11633497.
These are yes or no findings as the source states them, for the method shown. Binding seen in cells or lysates may run through a third protein. Some entries that bind do so weakly or less than the wild type.

The chains behind the UniProt entries cited, without tags or fusion partners. Residues count along the entry.
UniProt P13128, residues 25-529: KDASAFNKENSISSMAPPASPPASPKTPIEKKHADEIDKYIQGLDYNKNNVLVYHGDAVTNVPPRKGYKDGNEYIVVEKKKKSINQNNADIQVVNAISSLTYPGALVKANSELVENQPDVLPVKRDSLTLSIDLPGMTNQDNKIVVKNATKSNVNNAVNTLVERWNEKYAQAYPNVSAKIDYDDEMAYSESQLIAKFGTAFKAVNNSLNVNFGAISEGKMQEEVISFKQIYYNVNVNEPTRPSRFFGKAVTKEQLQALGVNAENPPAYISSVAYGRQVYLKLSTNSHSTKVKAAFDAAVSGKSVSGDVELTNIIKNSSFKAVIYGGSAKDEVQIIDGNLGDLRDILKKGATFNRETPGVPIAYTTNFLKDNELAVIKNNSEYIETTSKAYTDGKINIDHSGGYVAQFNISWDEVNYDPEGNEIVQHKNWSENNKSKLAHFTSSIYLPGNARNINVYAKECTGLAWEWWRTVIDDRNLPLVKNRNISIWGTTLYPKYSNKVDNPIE

Target: T1, endogenous Mic60 (human (endogenous in THP-1)) (UniProt Q16891)
T1 sequence: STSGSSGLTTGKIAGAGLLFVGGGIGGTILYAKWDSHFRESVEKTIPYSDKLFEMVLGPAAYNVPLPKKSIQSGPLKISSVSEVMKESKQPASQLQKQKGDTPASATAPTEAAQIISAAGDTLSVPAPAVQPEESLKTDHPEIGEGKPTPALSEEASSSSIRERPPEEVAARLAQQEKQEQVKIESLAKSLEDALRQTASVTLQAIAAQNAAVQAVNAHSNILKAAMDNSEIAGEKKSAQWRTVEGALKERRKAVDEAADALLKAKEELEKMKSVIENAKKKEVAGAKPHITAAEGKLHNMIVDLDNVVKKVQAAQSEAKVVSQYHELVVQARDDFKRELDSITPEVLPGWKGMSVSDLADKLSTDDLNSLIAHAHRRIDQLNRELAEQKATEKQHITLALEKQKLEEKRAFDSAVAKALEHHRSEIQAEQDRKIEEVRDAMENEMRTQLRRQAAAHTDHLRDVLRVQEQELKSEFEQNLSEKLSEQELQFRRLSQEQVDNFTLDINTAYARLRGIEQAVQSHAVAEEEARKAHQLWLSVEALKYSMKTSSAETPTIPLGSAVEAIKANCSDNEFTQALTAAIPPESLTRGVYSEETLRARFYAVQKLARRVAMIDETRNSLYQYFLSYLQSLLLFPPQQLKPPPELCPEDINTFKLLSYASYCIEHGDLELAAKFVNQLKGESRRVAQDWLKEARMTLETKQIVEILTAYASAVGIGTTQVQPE
Assay: co-IP

Substance: LLO produced by L. monocytogenes (from UniProt P13128 25-529)
- binding: binds
